Structures can show the parent of a compound that is named as a salt. This is one part of the list. Repeats in this data set agree poorly, so a single value says little.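 In a drug-repurposing library screen, luminescence reads luciferase driven by eight TEAD-binding elements, stably integrated into human kidney-derived cells. Compounds scoring over five robust Z scores above the plate mean are called hits.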
Tested on: HEK293A TEAD-LUC reporter
Test: TEAD-luciferase reporter activity (YAP activation), robust Z score vs plate; higher = stronger YAP/TEAD activation
Conditions: 24 h

| Compound | TEAD-luciferase reporter activity (compound concentration: 200 nM) | TEAD-luciferase reporter activity (compound concentration: 2 uM) | TEAD-luciferase reporter activity (compound concentration: 10 uM) |
| --- | --- | --- | --- |
| CCCC[C@H](CN(O)C=O)C(=O)N1CCC[C@H]1C(=O)Nc1ccc(F)c[n+]1[O-] | inactive: 0.127 | inactive: -0.153 | inactive: -0.681 |
| CC(C)CCCC(C)C1CCC2C3CCC4C[C@H](N5CC(OS(C)(=O)=O)C5)CC[C@]4(C)C3CC[C@]12C (some centres not stated) | inactive: -0.454 | inactive: -0.584 | inactive: 4.42 |
| CC1(C)C(=O)Nc2ccc(C3=NNC(=O)CC3)cc21 | inactive: 0.145 | inactive: 0.315 | inactive: 0.062 |
| Cc1ccc2c(Cl)cc(Cl)c(O)c2n1 | inactive: -0.421 | inactive: 0.688 | inactive: -1.24 |
| O=C(O)c1ccccc1Nc1cccc(C(F)(F)F)c1 |  | inactive: -1.85 |  |
| O=C(O)c1ccccc1Nc1cccc(C(F)(F)F)c1 [Flufenamic acid] | inactive: -1.02 |  | inactive: 1.25 |
| N[C@@H](C(=O)N[C@@H]1C(=O)N2C(C(=O)O)=C(CSc3c[nH]nn3)CS[C@H]12)c1ccc(O)cc1 | inactive: -1.47 |  | inactive: 2.44 |
| N[C@@H](C(=O)N[C@@H]1C(=O)N2C(C(=O)O)=C(CSc3c[nH]nn3)CS[C@H]12)c1ccc(O)cc1 [cefatrizine, Ausonia] |  | inactive: -0.642 |  |
| COc1cc2c(Nc3ccc(Cl)c(Cl)c3F)ncnc2cc1OCC1C[C@@H]2CN(C)C[C@@H]2C1 (some centres not stated) [tesevatinib, Kadmon Corporation] | inactive: -2.26 | inactive: -1.59 | inactive: -1.77 |
| COC(=O)CCN1CCN(c2cccc(SC(F)(F)F)c2)CC1 [phenylpiperazines] | inactive: 0.537 | inactive: -1.01 | inactive: 1.79 |
| C[S+](C)CCOC(=O)C(c1ccccc1)C1CCCCC1 (configuration not stated) | inactive: 1.47 | inactive: 1.68 | inactive: -1.25 |
| CC1(C)Oc2ccc(OC(F)(F)F)cc2C(N2Cc3ccccc3C2=O)C1O (configuration not stated) | inactive: 0.018 | inactive: 0.544 | inactive: 1.89 |
| CN1CCC(OC(=O)C(Oc2ccc(Cl)cc2)Oc2ccc(Cl)cc2)CC1 | inactive: -1.12 | inactive: -1.03 | inactive: 2.31 |
| CCCCCCCCCCCCC(C#N)(CCCN(C)CCc1cccc(OC)c1)c1cccc(OC)c1 (configuration not stated) | inactive: 2.12 | inactive: -1.03 | inactive: -1.45 |
| NCCN1CCN(c2cc(-c3ccccc3)c(C(F)(F)F)nn2)CC1 |  | inactive: -1.11 | active: 5.74 |
| C1=CN2CC(c3cccs3)N=C2S1 (configuration not stated) | inactive: 0.248 | inactive: 0.347 | inactive: -1.62 |
| CC[C@](O)(c1nnc(NCc2ccc3c(-c4ccc(F)cc4)cc(=O)oc3c2)o1)C(F)(F)F [setileuton] | inactive: -2.89 | inactive: -0.938 | inactive: -0.286 |
| CC(=O)N[C@@H]1[C@@H](O[C@@H]2O[C@H](C(=O)O)[C@@H](O)[C@H](O)[C@H]2O)[C@@H](O)[C@@H](OS(=O)(=O)O)O[C@H]1O | inactive: -0.474 |  | inactive: -0.214 |

| Compound | TEAD-luciferase reporter activity (compound concentration: 200 nM) | TEAD-luciferase reporter activity (compound concentration: 2 uM) | TEAD-luciferase reporter activity (compound concentration: 10 uM) |
| --- | --- | --- | --- |
| CC(/C=C/c1cccc(Oc2ccc(F)cc2)c1)N(O)C(N)=O (configuration not stated) | inactive: -1.03 | inactive: -1.58 | inactive: -1.03 |
| CC(C)c1cccc2c1OC(C(C)C)C(=S)N2CC(=O)O (configuration not stated) | inactive: -0.675 | inactive: -1.06 | inactive: -2.22 |
| C#Cc1cccc(Nc2ncnc3cc(OC)c(OCCCN4CCOCC4)cc23)c1 | inactive: 0.0223 | inactive: 1.18 | inactive: -0.828 |
| O=C(NN1C(=O)[C@@H]2[C@@H]3C=C[C@@H]([C@H]4C[C@@H]34)[C@@H]2C1=O)c1ccc(C(F)(F)F)cc1 [tecovirimat] | inactive: -1.71 | inactive: -1.03 | inactive: -0.238 |
| O=C1c2c(O)cc(O)cc2O[C@@H](c2ccc(O)c(O)c2)[C@@H]1O [Taxifolin] | inactive: -0.834 | inactive: 0.615 | inactive: 0.79 |
| COc1cc(N)c(Cl)cc1C(=O)NCC1CCN(CCC(OC(N)=O)c2ccc(F)cc2)CC1 (configuration not stated) [Relenopride hydrochloride] | inactive: 1.59 | inactive: 0.279 | inactive: 0.427 |
| C=C1CC/C=C(\C)CC[C@@H]2[C@@H]1CC2(C)C [beta-Caryophyllene] | inactive: -0.778 | inactive: -0.847 | inactive: -0.201 |
| [Cl][Ti]([Cl])([CH]1C=CC=C1)[CH]1C=CC=C1 [Titanocene dichloride] | inactive: 0.846 | inactive: 0.576 | inactive: 1.1 |
| Cc1ccc(S(=O)(=O)N[C@@H](CNC(=O)c2cc3n(n2)CCCN(CCC2CCNCC2)C3=O)C(=O)O)cc1 | inactive: -1.25 | inactive: 0.516 | inactive: 0.443 |
| O=C(O)c1cc(O)c(O)c(O)c1 [gallic acid] | inactive: -0.207 | inactive: -1.63 | inactive: -0.695 |
| COc1nc(NCCc2ccc(Cl)cc2Cl)cc(-c2cccc(C(C)(C)C(=O)O)c2)n1 | inactive: -0.277 | inactive: 0.368 | inactive: 4.31 |
| CNC(=O)c1ccc(Oc2ccc3c(c2)CCN(C2CCC2)C3)nc1 | inactive: -1.74 | inactive: -0.825 | inactive: 0.14 |
| CC1CCC(O)C/C1=C\C=C1/CCCC2(C)C1CCC2C(C)/C=C/C(C)C(C)C (configuration not stated) | inactive: -0.0413 | inactive: -1.89 | inactive: -1.17 |
| CCNC(C)CN1CCc2c(c(=O)oc3ccccc23)C1 (configuration not stated) | inactive: -1.06 | inactive: -0.123 | inactive: -1.47 |
| N#CN/C(=N\CCCCCCOc1ccc(Cl)cc1)Nc1ccncc1 | inactive: -1.18 | inactive: 4.39 | active: 18.6 |
| c1ccc(-c2cc(-c3ccncc3)c(N3CCN(c4ncccn4)CC3)nn2)cc1 | inactive: -1.05 | inactive: -1.18 | inactive: -0.278 |
| COCCCC(NC(=O)[C@@H]1CCCN1C(=O)[C@@H](Cc1ccccc1)NC(=O)OCc1ccccc1)B1OC(C)(C)C(C)(C)O1 (some centres not stated) | inactive: -0.692 | inactive: -0.481 | inactive: -1.34 |

Pulled one by one from the entries so far:

| Compound | TEAD-luciferase reporter activity (compound concentration: 200 nM) | TEAD-luciferase reporter activity (compound concentration: 2 uM) | TEAD-luciferase reporter activity (compound concentration: 10 uM) |
| --- | --- | --- | --- |
| N#CN/C(=N\CCCCCCOc1ccc(Cl)cc1)Nc1ccncc1 | inactive: -1.18 | inactive: 4.39 | active: 18.6 |
| COc1cc(N)c(Cl)cc1C(=O)NCC1CCN(CCC(OC(N)=O)c2ccc(F)cc2)CC1 (configuration not stated) [Relenopride hydrochloride] | inactive: 1.59 | inactive: 0.279 | inactive: 0.427 |

Reference: the supplement of paper PMC10735217
